These are yes or no findings as the source states them, for the method shown. In cells and extracts the contact can be indirect. A result given as binding can be weak or reduced; the word gives no strength.
Target: recombinant ULK1 (co-purified with pICln, SD Figure 1A) (human) (UniProt O75385)
Assay: pull-down; recombinant ULK1 and pICln co-purified (SD Figure 1A); for pulldown assays recombinant proteins were pre-incubated 1.5 h at 4°C, then sepharose for one hour; both purified

Protein sequences, listed by entry. Tags and fused reporters are not part of them. Lines headed by an entry give the natural chain unless they say otherwise; changes in a name come on top.
UniProt O75385: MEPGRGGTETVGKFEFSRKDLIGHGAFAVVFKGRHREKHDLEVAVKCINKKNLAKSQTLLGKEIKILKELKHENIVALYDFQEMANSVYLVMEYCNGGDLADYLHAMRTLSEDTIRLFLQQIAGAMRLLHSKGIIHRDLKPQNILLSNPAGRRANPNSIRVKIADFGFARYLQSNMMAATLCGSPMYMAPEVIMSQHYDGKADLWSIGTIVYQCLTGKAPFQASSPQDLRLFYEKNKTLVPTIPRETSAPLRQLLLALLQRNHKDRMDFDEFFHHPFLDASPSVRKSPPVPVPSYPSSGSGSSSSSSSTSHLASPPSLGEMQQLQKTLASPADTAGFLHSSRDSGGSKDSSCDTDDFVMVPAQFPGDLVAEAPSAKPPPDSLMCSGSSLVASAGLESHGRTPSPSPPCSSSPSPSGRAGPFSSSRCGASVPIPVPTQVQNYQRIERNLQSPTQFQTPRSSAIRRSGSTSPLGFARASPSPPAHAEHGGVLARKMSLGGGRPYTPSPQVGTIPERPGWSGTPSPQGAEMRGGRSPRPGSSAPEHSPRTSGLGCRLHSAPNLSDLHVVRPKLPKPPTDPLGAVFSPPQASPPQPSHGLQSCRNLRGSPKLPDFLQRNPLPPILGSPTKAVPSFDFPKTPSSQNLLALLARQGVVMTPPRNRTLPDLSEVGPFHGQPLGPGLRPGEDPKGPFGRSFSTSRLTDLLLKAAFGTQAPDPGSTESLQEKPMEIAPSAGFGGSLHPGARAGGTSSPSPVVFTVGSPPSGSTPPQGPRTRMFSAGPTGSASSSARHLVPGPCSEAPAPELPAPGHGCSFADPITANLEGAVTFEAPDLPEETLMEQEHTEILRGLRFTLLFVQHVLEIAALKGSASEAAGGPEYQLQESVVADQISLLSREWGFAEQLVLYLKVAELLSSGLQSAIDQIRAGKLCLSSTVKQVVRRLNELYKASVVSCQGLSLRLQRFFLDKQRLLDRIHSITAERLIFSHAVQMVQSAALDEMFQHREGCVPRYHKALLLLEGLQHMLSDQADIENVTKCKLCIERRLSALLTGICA

recombinant pICln (co-purified with ULK1, SD Figure 1A) (from UniProt P54105 1-237)
binding: binds
